The exact form of at least one protein or probe is not confirmed. Where a protein sequence is shown, tags need not be part of it.

This data set concerns the target T1, Fml1ΔC (Schizosaccharomyces pombe) (UniProt Q9UT23).
T1 sequence (looked up, limits assumed): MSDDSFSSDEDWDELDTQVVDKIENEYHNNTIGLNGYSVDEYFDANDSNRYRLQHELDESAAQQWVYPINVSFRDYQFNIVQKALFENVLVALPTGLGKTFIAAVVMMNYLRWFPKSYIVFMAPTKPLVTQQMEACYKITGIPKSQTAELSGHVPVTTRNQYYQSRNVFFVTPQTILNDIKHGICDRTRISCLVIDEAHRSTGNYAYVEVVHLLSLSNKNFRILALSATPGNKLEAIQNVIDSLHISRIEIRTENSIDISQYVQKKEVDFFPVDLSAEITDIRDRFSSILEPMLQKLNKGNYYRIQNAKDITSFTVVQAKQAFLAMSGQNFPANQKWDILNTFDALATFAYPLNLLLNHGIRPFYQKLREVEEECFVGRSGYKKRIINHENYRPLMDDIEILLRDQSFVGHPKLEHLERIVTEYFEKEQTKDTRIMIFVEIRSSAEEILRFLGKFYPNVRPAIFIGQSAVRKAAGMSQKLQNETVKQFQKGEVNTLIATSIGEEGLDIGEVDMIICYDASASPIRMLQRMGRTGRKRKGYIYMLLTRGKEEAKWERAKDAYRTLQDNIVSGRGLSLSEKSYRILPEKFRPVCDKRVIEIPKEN
Kind of data set: EMSA. The settings on record: EMSA: 0.5 nM labeled DNA in 50 mM Tris-HCl pH 8.0, 1 mM DTT, 100 µg/ml BSA, 6% glycerol, 20 µl, recombinant protein, protein details: N-terminal His6 (pET14b, pSN3), label: 5'-32P on oligo 2 (S7), folded or branched DNA. On the technique in general: A gel shift assay detects complexes by their altered migration in electrophoresis.

In the case of “GACGCTGCCGAATTCTGGCTTGCTAGGACATCTTTGCCCACGTTGACCC / TGGGTCAACGTGGGCAAAGATGTCCTAGCAATGTAATCGTCTATGACGTT / CAACGTCATAGACGATTACATTGCTAGGACATGCTGTCTAGAGACTATCGA / ATCGATAGTCTCTAGACAGCATGTCCTAGCAAGCCAGAATTCGGCAGCGT [X-12]”, where the note is “bound equally well as X-0”, the binding result was “binds”.

As to “TGCCGAATTCTACCAGTGCCAGTGATGGACATCTTTGCCCACGTTGACCC / TGGGTCAACGTGGGCAAAGATGTCCTAGCAATGTAATCGTCTATGACGTT / CAACGTCATAGACGATTACATTGCTACATGGAGCTGTCTAGAGGATCCGA / GTCGGATCCTCTAGACAGCTCCATGATCACTGGCACTGGTAGAATTCGGC [X-0]”, the binding result (bound equally well as X-12) is on record as “binds”.

Turning to “TGGGTCAACGTGGGCAAAGATGTCCTAGCAATGTAATCGTCTATGACGTT / CAACGTCATAGACGATTACATTGCTAATCACTGGCACTGGTAGAATTCGGC / GGACATCTTTGCCCACGTTGACCC / TGCCGAATTCTACCAGTGCCAGTGAT [F2 fork]”, the binding result was “binds”.
